Data taken from the supplement of paper PMC10849652.
The list shows a part of the results.

Amino acid sequences for entries named in this document (tags omitted). A change or cut given only in a name is not applied to a line headed by its entry.
UniProt Q09666: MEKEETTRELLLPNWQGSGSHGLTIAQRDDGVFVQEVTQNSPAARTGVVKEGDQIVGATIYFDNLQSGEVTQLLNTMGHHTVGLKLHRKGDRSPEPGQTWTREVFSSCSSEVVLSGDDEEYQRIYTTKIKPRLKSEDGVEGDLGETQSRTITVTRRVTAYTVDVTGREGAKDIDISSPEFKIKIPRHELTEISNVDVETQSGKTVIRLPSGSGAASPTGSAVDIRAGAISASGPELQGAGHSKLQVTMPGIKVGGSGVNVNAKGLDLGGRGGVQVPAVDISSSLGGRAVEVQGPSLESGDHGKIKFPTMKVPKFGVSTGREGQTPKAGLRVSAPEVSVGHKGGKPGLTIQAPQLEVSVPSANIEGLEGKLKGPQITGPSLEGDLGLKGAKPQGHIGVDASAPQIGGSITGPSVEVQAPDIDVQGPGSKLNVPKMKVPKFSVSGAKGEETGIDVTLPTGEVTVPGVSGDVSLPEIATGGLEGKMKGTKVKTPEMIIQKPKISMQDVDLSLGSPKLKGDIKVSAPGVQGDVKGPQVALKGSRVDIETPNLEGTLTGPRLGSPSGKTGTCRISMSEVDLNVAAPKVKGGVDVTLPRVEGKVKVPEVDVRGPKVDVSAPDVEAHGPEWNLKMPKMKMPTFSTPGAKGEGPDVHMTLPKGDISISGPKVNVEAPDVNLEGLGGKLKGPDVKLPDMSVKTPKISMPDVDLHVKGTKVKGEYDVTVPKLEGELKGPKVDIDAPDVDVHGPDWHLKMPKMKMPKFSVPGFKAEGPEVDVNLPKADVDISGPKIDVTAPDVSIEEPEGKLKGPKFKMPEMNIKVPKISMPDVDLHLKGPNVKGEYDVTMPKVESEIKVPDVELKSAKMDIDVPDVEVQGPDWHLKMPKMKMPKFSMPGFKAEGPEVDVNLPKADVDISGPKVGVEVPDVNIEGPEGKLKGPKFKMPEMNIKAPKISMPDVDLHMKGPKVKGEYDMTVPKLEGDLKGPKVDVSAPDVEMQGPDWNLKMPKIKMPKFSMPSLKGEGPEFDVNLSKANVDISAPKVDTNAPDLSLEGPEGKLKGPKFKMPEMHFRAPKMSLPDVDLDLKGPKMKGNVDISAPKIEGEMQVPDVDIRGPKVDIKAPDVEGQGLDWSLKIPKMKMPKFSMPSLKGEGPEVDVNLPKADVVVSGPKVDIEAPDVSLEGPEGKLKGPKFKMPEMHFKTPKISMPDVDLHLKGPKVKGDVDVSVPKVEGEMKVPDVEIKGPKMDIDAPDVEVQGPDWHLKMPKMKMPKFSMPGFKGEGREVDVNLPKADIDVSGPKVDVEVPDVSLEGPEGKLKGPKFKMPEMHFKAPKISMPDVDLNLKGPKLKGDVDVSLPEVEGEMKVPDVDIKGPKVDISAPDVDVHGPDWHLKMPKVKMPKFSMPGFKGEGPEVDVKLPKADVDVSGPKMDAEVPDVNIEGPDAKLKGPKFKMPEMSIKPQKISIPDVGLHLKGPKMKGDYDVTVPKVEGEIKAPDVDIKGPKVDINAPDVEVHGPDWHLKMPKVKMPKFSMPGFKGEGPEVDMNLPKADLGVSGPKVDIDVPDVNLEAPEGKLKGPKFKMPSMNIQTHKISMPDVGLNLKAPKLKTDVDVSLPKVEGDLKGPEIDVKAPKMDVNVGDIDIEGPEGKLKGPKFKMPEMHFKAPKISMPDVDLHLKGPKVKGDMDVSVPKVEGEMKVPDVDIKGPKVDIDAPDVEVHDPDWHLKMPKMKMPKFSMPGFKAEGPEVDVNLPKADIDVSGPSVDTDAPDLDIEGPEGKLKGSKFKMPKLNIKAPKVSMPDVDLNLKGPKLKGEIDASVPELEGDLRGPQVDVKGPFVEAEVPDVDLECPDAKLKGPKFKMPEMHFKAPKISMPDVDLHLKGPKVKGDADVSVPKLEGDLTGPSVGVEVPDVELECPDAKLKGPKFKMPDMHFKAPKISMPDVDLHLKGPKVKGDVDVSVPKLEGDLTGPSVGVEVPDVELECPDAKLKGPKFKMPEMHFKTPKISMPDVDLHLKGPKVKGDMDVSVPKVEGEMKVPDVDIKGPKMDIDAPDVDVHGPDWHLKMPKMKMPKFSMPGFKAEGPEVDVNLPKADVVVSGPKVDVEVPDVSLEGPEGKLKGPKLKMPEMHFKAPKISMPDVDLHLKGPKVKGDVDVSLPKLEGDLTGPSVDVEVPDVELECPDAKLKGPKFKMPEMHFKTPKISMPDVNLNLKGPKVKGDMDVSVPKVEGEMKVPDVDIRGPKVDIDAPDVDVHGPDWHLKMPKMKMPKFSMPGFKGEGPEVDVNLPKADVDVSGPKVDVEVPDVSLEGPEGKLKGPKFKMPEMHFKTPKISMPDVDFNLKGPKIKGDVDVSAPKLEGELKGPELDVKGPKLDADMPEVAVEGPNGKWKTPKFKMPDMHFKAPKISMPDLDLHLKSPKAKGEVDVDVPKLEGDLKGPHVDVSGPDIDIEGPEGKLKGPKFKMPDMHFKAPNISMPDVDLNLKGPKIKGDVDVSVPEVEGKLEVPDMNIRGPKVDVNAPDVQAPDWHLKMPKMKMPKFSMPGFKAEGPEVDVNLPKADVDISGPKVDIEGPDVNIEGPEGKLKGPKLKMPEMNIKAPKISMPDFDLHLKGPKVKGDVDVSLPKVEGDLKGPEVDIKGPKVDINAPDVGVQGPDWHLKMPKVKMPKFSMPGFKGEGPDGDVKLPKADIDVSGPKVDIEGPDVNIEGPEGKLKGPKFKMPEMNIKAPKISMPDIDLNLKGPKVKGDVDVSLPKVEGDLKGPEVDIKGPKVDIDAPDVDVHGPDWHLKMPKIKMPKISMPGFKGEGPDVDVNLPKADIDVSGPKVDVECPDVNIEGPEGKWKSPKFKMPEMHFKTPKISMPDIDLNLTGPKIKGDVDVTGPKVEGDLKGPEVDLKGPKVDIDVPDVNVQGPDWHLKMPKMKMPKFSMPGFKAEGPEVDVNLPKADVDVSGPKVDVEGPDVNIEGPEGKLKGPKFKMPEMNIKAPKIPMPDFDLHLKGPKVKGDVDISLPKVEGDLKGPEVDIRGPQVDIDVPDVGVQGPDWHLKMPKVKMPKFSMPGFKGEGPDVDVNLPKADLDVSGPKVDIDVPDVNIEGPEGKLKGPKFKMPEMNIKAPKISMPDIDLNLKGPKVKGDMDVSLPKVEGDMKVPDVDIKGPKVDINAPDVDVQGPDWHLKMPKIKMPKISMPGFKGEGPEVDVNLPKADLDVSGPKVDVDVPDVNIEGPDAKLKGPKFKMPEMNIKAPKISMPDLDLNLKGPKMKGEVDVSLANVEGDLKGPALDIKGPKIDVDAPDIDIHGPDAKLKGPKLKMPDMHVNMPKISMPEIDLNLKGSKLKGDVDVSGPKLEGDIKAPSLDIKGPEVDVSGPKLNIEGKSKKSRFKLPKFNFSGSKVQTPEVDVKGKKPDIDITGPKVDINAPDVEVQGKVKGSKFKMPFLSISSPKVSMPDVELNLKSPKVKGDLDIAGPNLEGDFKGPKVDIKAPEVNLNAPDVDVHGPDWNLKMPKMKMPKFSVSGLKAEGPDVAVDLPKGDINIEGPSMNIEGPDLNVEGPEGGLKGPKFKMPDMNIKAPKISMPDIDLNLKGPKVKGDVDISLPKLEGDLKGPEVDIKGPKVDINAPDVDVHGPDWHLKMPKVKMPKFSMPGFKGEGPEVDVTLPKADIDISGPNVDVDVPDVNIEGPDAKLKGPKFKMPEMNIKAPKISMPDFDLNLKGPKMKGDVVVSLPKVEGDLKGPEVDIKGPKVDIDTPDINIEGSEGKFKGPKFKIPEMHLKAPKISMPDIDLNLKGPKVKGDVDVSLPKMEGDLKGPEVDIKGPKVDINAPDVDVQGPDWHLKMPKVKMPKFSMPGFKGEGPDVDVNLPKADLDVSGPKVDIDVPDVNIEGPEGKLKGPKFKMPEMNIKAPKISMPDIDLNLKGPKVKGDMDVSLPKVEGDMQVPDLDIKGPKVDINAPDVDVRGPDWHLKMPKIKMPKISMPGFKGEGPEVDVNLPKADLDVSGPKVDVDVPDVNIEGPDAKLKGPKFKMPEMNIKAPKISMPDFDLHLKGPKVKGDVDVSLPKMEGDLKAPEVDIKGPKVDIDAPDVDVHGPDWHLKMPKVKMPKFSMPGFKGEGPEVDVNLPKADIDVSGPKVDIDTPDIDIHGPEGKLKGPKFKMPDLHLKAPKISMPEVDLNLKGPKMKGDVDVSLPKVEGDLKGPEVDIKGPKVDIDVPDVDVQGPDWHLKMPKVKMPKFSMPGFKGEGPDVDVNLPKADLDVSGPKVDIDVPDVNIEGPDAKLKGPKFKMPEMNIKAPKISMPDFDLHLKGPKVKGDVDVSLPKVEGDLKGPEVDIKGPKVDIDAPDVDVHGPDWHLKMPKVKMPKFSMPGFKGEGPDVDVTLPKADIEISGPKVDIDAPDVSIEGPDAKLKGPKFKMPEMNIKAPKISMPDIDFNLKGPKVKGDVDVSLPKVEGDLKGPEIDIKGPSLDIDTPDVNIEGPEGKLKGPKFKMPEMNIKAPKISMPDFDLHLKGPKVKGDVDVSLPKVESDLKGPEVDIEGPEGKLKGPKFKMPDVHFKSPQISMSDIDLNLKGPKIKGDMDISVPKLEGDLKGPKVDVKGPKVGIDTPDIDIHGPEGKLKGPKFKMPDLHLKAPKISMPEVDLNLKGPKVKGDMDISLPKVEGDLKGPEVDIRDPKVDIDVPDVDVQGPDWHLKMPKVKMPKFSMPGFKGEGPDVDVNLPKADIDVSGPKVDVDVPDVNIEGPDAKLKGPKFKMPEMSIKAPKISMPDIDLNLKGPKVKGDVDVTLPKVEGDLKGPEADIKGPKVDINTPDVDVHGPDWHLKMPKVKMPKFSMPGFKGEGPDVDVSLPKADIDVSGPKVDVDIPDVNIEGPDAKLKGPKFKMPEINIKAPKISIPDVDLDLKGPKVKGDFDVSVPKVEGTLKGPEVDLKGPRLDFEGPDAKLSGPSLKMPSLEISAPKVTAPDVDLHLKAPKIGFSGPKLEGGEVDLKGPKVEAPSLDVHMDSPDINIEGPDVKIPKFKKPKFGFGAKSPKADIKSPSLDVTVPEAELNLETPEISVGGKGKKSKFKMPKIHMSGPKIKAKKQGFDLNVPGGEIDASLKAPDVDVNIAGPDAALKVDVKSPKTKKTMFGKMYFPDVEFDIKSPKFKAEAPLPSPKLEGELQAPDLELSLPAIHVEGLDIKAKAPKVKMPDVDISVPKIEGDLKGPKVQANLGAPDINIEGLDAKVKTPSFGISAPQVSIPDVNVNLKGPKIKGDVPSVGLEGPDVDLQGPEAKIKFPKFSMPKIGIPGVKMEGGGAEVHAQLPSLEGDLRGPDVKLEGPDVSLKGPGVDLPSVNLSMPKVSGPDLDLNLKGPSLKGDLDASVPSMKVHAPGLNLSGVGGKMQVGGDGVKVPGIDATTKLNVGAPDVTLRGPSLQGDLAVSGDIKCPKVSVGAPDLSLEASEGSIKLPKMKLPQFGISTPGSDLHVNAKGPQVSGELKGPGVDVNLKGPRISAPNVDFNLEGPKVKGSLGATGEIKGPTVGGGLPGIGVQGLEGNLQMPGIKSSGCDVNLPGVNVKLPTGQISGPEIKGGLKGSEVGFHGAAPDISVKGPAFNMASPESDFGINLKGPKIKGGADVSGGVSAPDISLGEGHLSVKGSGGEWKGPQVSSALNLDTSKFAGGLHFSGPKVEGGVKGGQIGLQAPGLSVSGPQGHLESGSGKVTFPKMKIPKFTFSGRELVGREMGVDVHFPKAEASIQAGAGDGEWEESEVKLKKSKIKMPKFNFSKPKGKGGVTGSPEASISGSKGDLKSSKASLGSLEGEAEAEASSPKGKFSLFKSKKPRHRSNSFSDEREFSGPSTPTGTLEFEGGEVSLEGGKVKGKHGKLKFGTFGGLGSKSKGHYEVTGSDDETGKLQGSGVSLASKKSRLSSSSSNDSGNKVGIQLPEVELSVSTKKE
UniProt P00568: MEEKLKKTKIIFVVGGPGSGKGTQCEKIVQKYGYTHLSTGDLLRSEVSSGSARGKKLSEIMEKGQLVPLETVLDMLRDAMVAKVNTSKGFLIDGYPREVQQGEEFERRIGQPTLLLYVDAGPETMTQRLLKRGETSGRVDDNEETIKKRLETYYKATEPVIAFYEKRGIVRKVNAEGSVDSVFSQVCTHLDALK
UniProt Q9NZ32, whole entry, looked up: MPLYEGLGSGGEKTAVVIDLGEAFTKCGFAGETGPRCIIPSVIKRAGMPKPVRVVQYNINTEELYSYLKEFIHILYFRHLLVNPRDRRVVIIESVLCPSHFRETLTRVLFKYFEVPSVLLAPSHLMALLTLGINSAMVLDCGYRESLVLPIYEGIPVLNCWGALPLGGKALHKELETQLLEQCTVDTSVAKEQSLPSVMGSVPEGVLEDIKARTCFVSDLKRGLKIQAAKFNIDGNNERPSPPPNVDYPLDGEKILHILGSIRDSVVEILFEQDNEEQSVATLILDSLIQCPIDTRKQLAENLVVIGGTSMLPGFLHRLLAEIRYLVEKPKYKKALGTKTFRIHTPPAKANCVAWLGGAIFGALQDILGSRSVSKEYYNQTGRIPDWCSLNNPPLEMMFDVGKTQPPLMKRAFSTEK

Tests used:
Assay in all cases: log2 fold change, soluble protein after heating vs DMSO (PISA); higher = thermal stabilisation; K562 lysate, 10 uM; active = over 0.2 and 3.5 SD of the protein, either way, in both replicates (recomputed)
[1] = compound: C1=CC=C(C=C1)[C@H](COC2=CC3=C(C=C2)NC(=O)N3)NC(=O)C4=CC=CN(C4=O)CC5=CC(=C(C=C5)F)F
How it was run: (§1)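 Soluble protein was defined as the supernatant remaining after 21,000xg for 90 min, following pooling of heated aliquots and adjustment to 0.5% NP-40 at 4°C. Before that, crude K562 extract at 1 mg/mL protein in PBS pH 7.4 with 1 mM MgCl2 was treated with 10 μM compound for 30 min and heated for 3 min across 48°C-58°C. Quantification used TMTpro 16plex LC-MS/MS with channel sums equalised, and values are log-two fold changes in thermal stability relative to solvent controls from duplicates.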

[2] = compound: CC1=C(SC2=C1C(=N[C@H](C3=NN=C(N32)C)CC(=O)N)C4=CC=C(C=C4)Cl)C
How it was run: as §1

[3] = compound: CC1=C2C(=CC=C1)N=C(N(C2=O)C3=CC=CC=C3C)CN4C=NC5=C(N=CN=C54)N
How it was run: as §1

[4] = compound: Cc1sc2c(c1C)C(c1ccc(Cl)cc1)=N[C@@H](CC(=O)OC(C)(C)C)c1nnc(C)n1-2
How it was run: as §1

[5] = compound: c1ccc([C@@H]2C[C@H]2NC2CCNCC2)cc1
How it was run: as §1

Measured: log2 fold change

AIFM2 (UniProt Q9BRQ8)
active: [1] 0.668
inactive: [2] 0.008 | [3] 0.039 | [4] -0.007 | [5] -0.1

AHNAK (UniProt Q09666)
inactive: [1] -0.019 | [2] 0.002 | [3] -0.01 | [4] 0.01 | [5] -0.011

AKR1A1 (UniProt P14550)
inactive: [1] 0.009 | [2] 0.015 | [3] 0.03 | [4] 0.023 | [5] 0.027

AK1 (UniProt P00568)
inactive: [1] -0.032 | [2] 0.024 | [3] -0.009 | [4] 0.012 | [5] 0.2

AGPAT3 isoform 3 (UniProt Q9NRZ7)
inactive: [1] -0.06 | [2] 0.043 | [3] 0.002 | [4] -0.018 | [5] -0.012

ACTB (UniProt C9JUM1)
inactive: [1] -0.127 | [2] 0.041

AK5 (UniProt Q9Y6K8)
inactive: [1] -0.021 | [2] 0.022 | [3] -0.047 | [4] -0.005

AGAP1 (UniProt Q9UPQ3)
inactive: [1] 0.022 | [2] -0.002 | [3] 0.134 | [4] -0.097 | [5] 0.042

AKAP8L (UniProt Q9ULX6)
inactive: [1] 0.011 | [2] -0.005 | [3] -0.001 | [4] 0.018 | [5] -0.02

AHCYL1 (UniProt O43865)
inactive: [1] -0.011 | [2] -0.003 | [3] -0.011 | [4] 0.034 | [5] 0.006

ACTR10 (UniProt Q9NZ32)
inactive: [1] 0.038 | [2] -0.027 | [3] 0.064 | [4] 0.022 | [5] -0.055

AIMP1 isoform 2 (UniProt Q12904)
inactive: [1] -0.033 | [2] 0.01 | [3] 0.006 | [4] 0.029 | [5] 0.044

ADAMTS5 (UniProt Q9UNA0)
inactive: [1] 0.032 | [2] 0.115 | [3] 0 | [4] -0.136
active: [5] -0.481

AGPS (UniProt O00116)
inactive: [1] -0.103 | [2] 0.016 | [3] 0.035 | [4] 0.019 | [5] -0.006

ACTG1 (UniProt I3L4N8)
inactive: [1] -0.042 | [2] -0.082 | [3] -0.098 | [4] -0.245 | [5] 0.218

AHCYL2 (UniProt Q96HN2)
inactive: [1] 0.007 | [2] 0.038 | [3] 0.045 | [4] 0.286 | [5] -0.081

ADK, A0A5F9ZH76
inactive: [1] -0.136 | [2] 0.197

AKR1C3 (UniProt P42330)
inactive: [1] 0.031 | [2] 0.05 | [3] 0.022 | [4] -0.04 | [5] 0.031

AHDC1 (UniProt Q5TGY3)
inactive: [1] -0.71 | [2] -0.278

ADRM1 (UniProt Q16186)
inactive: [1] -0.005 | [2] 0.007 | [3] -0.001 | [4] -0.026 | [5] 0.016

ACOT7 isoform 7 (UniProt O00154)
inactive: [1] 0.022 | [2] -0.017 | [3] -0.009 | [4] -0.03 | [5] -0.017

ADAT1 (UniProt Q9BUB4)
inactive: [1] 0.108 | [2] -0.019

ACTR1A (UniProt P61163)
inactive: [1] 0.012 | [2] 0.02 | [3] -0.013 | [4] -0.012 | [5] -0.063

AGAP3 isoform 4 (UniProt Q96P47)
inactive: [1] -0.04 | [2] 0.02 | [3] 0.024 | [4] -0.013 | [5] 0.056

ADA (UniProt P00813)
inactive: [1] 0 | [2] 0.005 | [3] -0.005 | [4] 0.099 | [5] -0.05

AHSA1 (UniProt O95433)
inactive: [1] 0.047 | [2] -0.009 | [3] 0 | [4] -0.012 | [5] 0.01

AGO3 (UniProt Q9H9G7)
inactive: [1] -0.018 | [2] 0.031 | [3] 0.053 | [4] -0.044 | [5] -0.022

ADIPOR2 (UniProt Q86V24)
inactive: [1] -0.1 | [2] 0.11 | [3] -0.103 | [4] 0.048

ACSS3 (UniProt Q9H6R3)
inactive: [1] 0.166 | [2] 0.069

AIMP2 isoform 2 (UniProt Q13155)
inactive: [1] 0.182 | [2] 0.029

ADPGK (UniProt Q9BRR6)
inactive: [1] -0.02 | [2] 0.032 | [3] 0.059 | [4] 0.012 | [5] -0.014

AK4 (UniProt P27144)
inactive: [1] 0.025 | [2] -0.038 | [3] 0.059 | [4] 0.024 | [5] 0.026

ADAM10 (UniProt O14672)
inactive: [1] -0.003 | [2] -0.012 | [3] -0.014 | [4] -0.03 | [5] -0.058

AKR7A2 (UniProt O43488)
inactive: [1] 0 | [2] 0.019 | [3] 0.024 | [4] 0.027 | [5] 0.025

ADAR isoform 4 (UniProt P55265)
inactive: [1] -0.188 | [2] 0.116 | [3] 0.035 | [4] 0.005 | [5] 0.032

ACSL3 (UniProt O95573)
inactive: [1] -0.115 | [2] 0.045 | [3] 0.025 | [4] 0.023 | [5] -0.004

ADSS2 (UniProt P30520)
inactive: [1] 0.01 | [2] 0.009 | [3] 0 | [4] -0.008 | [5] -0.019

AGRN (UniProt O00468)
inactive: [1] 0.04 | [2] -0.127 | [3] -0.175 | [4] 0.1 | [5] -0.048

AK2 (UniProt P54819)
inactive: [1] 0.046 | [2] -0.013 | [3] 0.01 | [4] 0.051 | [5] -0.015

ACTN1 isoform 3 (UniProt P12814)
inactive: [1] 0.006 | [2] 0.014 | [3] -0.016 | [4] 0 | [5] 0.016

ACTR3B (UniProt Q9P1U1)
inactive: [1] 0.015 | [2] 0.089 | [3] 0.063 | [4] -0.009 | [5] -0.055

ACSL4 (UniProt O60488)
inactive: [1] -0.058 | [2] 0.046 | [3] 0.032 | [4] -0.106 | [5] 0.038

AFDN (UniProt J3KN01)
inactive: [1] -0.051 | [2] 0.024 | [3] 0.001 | [4] 0.023 | [5] 0.025

ACTBL2 (UniProt Q562R1)
inactive: [1] 0.138 | [2] -0.194 | [3] -0.016 | [4] 0.106 | [5] 0.365

ADAT3 (UniProt Q96EY9)
inactive: [1] -0.031 | [2] 0.006 | [3] 0.008 | [4] -0.036 | [5] 0.034

ADAL (UniProt Q6DHV7)
inactive: [1] 0.022 | [2] 0.007 | [3] 0.013 | [4] -0.044 | [5] 0.042

ACOX1 isoform 2 (UniProt Q15067)
inactive: [1] 0.035 | [2] -0.002 | [3] -0.026 | [4] -0.018 | [5] -0.037

ACOT9 isoform 4 (UniProt Q9Y305)
inactive: [1] 0.023 | [2] -0.018 | [3] 0.067 | [4] 0.011 | [5] 0.1

Looked up one by one from the list above (2):
ACTR1A (UniProt P61163)
inactive: [1] 0.012 | [2] 0.02 | [3] -0.013 | [4] -0.012 | [5] -0.063

ACOT7 isoform 7 (UniProt O00154)
inactive: [1] 0.022 | [2] -0.017 | [3] -0.009 | [4] -0.03 | [5] -0.017

Remaining list, next part

AIFM1 (UniProt O95831)
inactive: [1] -0.008 | [2] 0.013 | [3] -0.012 | [4] 0.03 | [5] 0.052

AFG3L2 (UniProt Q9Y4W6)
inactive: [1] -0.044 | [2] 0.034 | [3] 0.035 | [4] -0.025 | [5] 0.03

ADH5 (UniProt P11766)
inactive: [1] -0.01 | [2] 0.023 | [3] -0.016 | [4] 0.014 | [5] 0

ACSM3 (UniProt Q53FZ2)
inactive: [1] 0.034 | [2] 0.007 | [3] -0.066 | [4] 0.002 | [5] 0.021

AGO2 (UniProt Q9UKV8)
inactive: [1] 0.011 | [2] -0.036 | [3] -0.002 | [4] -0.041 | [5] 0

ACSS2 isoform 2 (UniProt Q9NR19)
inactive: [1] -0.004 | [2] -0.009 | [3] -0.019 | [4] 0.008 | [5] 0.048

ACTN4 (UniProt O43707)
inactive: [1] 0.025 | [2] -0.013 | [3] -0.013 | [4] -0.016 | [5] -0.025

ACTB, A0A2R8Y793
inactive: [1] -0.014 | [2] 0.022 | [3] -0.003 | [4] 0.025 | [5] 0.013
